Reference: paper PMC7819943, “Rice protein-binding microarrays: a tool to detect cis-acting elements near promoter regions in rice”
This is one part of the list.

Molecular target: T1, OsSMF1 (Oryza sativa, UniProt Q6ZLB0 1-436)
T1 sequence: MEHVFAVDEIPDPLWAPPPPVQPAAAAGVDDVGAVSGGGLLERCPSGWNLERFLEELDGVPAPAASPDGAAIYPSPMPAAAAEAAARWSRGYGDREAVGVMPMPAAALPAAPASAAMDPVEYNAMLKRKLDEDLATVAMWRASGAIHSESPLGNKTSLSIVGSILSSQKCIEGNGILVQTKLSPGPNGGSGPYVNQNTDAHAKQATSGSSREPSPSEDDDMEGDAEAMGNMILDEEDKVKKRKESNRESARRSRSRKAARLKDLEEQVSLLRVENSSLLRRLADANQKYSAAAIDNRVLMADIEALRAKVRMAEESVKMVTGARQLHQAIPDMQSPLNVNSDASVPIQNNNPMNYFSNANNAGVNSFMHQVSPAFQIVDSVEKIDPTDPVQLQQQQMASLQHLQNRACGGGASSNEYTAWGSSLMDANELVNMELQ
Experiment: protein-binding microarray (RPBM); PBS, 2% BSA, 51.3 ng/ul salmon testes DNA, 50 uM zinc acetate, 200 nM TF, 25 C, 1 h; high values mean tight binding
Settings: protein: recombinant; tags: N-terminal polyhistidine and DsRed monomer fusion (pET32a); chain copies: 2; label: CyDye5-dUTP incorporated in the synthesized complementary strand; 3' TTTTT single-stranded linker to array surface; dsDNA, one strand shown
Method in brief: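 Transcription factors were made in E. coli BL21-CodonPlus as N-terminal fusions to a polyhistidine tag and DsRed, then purified on Ni–NTA. After primer extension with Cy5-dUTP and blocking with 2% BSA, a custom Agilent array was exposed for 1 h at 25 °C to 200 nM protein in PBS, 2% BSA, salmon testes DNA and 50 µM zinc acetate. Washed arrays were scanned on an Axon 4000B, and the binding signal is per-feature fluorescence intensity in arbitrary units.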

Sequence | binding signal
AAATCGCATGTATACATGTACAAATAGCGTTGCTTTGTCACGGAGTCACCTAGTGCAG | 4760 fluorescence intensity (a.u.)
CGCTGTGTATATATGTGCAGGTCCATCCATGAGAGGTTGACGGAGTCACCTAGTGCAG | 34900 fluorescence intensity (a.u.)
TTACGCTTAATAAATTCGTCTCACGGTTTCCATGCAAGTTCGGAGTCACCTAGTGCAG | 15500 fluorescence intensity (a.u.)
GGGAGTGTACATCTCAGTTGACGTGGACTGCCTCGATCCCCGGAGTCACCTAGTGCAG | 18700 fluorescence intensity (a.u.)
CTCACAGTCGTCATCGTCGCTACCGCCGCCGCCGCCGCTGCGGAGTCACCTAGTGCAG | 4830 fluorescence intensity (a.u.)
GCCTCCTCTCCTCTCTCTCGCCTGTGACCTGTCCCTACCTCGGAGTCACCTAGTGCAG | 3860 fluorescence intensity (a.u.)
CATGTTCGTGCGCCGTCACTACAGGCACCTCGCTGTCAACCGGAGTCACCTAGTGCAG | 40100 fluorescence intensity (a.u.)
CGCCGGTGTATATATCGGATCTTTCCAACTCAGCGCCACACGGAGTCACCTAGTGCAG | 6840 fluorescence intensity (a.u.)
GTTTTGGCTGACGTGGCGCCTACGTGGTTTGTTTGACCTACGGAGTCACCTAGTGCAG | 37300 fluorescence intensity (a.u.)
ATATGATGTCACAATAAAATGCCAGTCCGAGTGATTTTCTCGGAGTCACCTAGTGCAG | 4730 fluorescence intensity (a.u.)
CCCCACGCCACAGCCTCTTATCCCACACGCGGACCAACAGCGGAGTCACCTAGTGCAG | 3200 fluorescence intensity (a.u.)
AGGCTCCCCTGAGTCGTGACGTGCACTCGAAAGTCGAAAGCGGAGTCACCTAGTGCAG | 41100 fluorescence intensity (a.u.)
GGGCCCACCTGTCATTGGGTAGACGCAAGTACTGCCATGTCGGAGTCACCTAGTGCAG | 3140 fluorescence intensity (a.u.)
CGGTCGAAAATTGACGGAGGATCACTGTCAGTCACCGGCGCGGAGTCACCTAGTGCAG | 3160 fluorescence intensity (a.u.)
ACGTTATAGTTTAGAACATGACGTAACATAGATGTGTAGGCGGAGTCACCTAGTGCAG | 4740 fluorescence intensity (a.u.)
CGTGGTCGCCCTCCAAAGTCTCGCGCCGACGCACGCCCACCGGAGTCACCTAGTGCAG | 3440 fluorescence intensity (a.u.)
GGACCGTCGAGCTCCATGACCGCTTCGTCGACGCCGTCACCGGAGTCACCTAGTGCAG | 3500 fluorescence intensity (a.u.)
TCTTGTGTGTTTGTTCCGATTTGCTGCTCAATCTGTCCATCGGAGTCACCTAGTGCAG | 3240 fluorescence intensity (a.u.)
TAATTAAGAGCTCCACACTTCCACTTATCTGGGTTTGATGCGGAGTCACCTAGTGCAG | 28300 fluorescence intensity (a.u.)
CTCTCTCCTCACGTCACGAATCAACGATCCTAGGAACAACCGGAGTCACCTAGTGCAG | 6400 fluorescence intensity (a.u.)
GTGGCATTGACGTGGCGCTTACGTGTCAATTCTACTCCGGCGGAGTCACCTAGTGCAG | 44200 fluorescence intensity (a.u.)
GGGGAGTATCGGTTCTGGCATCGTACTAAACGGTATTGTCCGGAGTCACCTAGTGCAG | 19700 fluorescence intensity (a.u.)
GAGCTCCGGACCTGGCTCGCGTCACCGACAAGTGGGCCCCCGGAGTCACCTAGTGCAG | 3490 fluorescence intensity (a.u.)

Pulled one by one from above (2):
Sequence | binding signal
CGTGGTCGCCCTCCAAAGTCTCGCGCCGACGCACGCCCACCGGAGTCACCTAGTGCAG | 3440 fluorescence intensity (a.u.)
CGCTGTGTATATATGTGCAGGTCCATCCATGAGAGGTTGACGGAGTCACCTAGTGCAG | 34900 fluorescence intensity (a.u.)
